# Source: the supplement of paper PMC8728848
# The other results are listed elsewhere or left out.
# Assays:
# Test in all cases: glycan array binding signal (z-score within array); higher = stronger binding
# Conditions in all cases: glycan notation: IUPAC condensed, linker removed
# [1] = target: Fuc(a1-2)Gal(b1-4)GlcNAc(b1-3)Gal(b1-4)GlcNAc(b1-2)Man(a1-3)[Fuc(a1-2)Gal(b1-4)GlcNAc(b1-3)Gal(b1-4)GlcNAc(b1-2)Man(a1-6)]Man(b1-4)GlcNAc(b1-4)GlcNAc
# Outline: (§1)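 The binding signal is a Z-score computed within each array and averaged over linkers. Arrays of the same protein sequence at different concentrations or buffers were also averaged together. Data originate from 3228 arrays in the Consortium for Functional Glycomics database, kept only where the protein sequence was available.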
# [2] = target: Fuc(a1-2)Gal(b1-4)GlcNAc(b1-3)Gal(b1-4)GlcNAc(b1-3)Gal(b1-4)GlcNAc
# Outline: as §1
# [3] = target: Fuc(a1-2)Gal(b1-4)GlcNAc(b1-3)GalNAc
# Outline: as §1
# [4] = target: Fuc(a1-2)Gal(b1-4)GlcNAc(b1-3)[Fuc(a1-2)Gal(b1-4)GlcNAc(b1-6)]GalNAc
# Outline: as §1
# [5] = target: Fuc(a1-2)Gal(b1-4)GlcNAc(b1-3)[Fuc(a1-3)[Gal(b1-4)]GlcNAc(b1-6)]Gal(b1-4)Glc
# Outline: as §1
# [6] = target: Fuc(a1-2)Gal(b1-4)GlcNAc(b1-6)GalNAc
# Outline: as §1
# [7] = target: Fuc(a1-2)Gal(b1-4)GlcNAc6S
# Outline: as §1
# [8] = target: Fuc(a1-2)Gal(b1-4)[Fuc(a1-3)]GlcNAc
# Outline: as §1
# [9] = target: Fuc(a1-2)Gal(b1-4)[Fuc(a1-3)]GlcNAc(b1-2)Man(a1-3)[Fuc(a1-2)Gal(b1-4)[Fuc(a1-3)]GlcNAc(b1-2)Man(a1-6)]Man(b1-4)GlcNAc(b1-4)[Fuc(a1-6)]GlcNAc
# Outline: as §1
# [10] = target: Fuc(a1-2)Gal(b1-4)[Fuc(a1-3)]GlcNAc(b1-2)[Fuc(a1-2)Gal(b1-4)[Fuc(a1-3)]GlcNAc(b1-4)]Man(a1-3)[Fuc(a1-2)Gal(b1-4)[Fuc(a1-3)]GlcNAc(b1-2)Man(a1-6)]Man(b1-4)GlcNAc(b1-4)GlcNAc
# Outline: as §1
# [11] = target: Fuc(a1-2)Gal(b1-4)[Fuc(a1-3)]GlcNAc(b1-3)Gal(b1-4)[Fuc(a1-3)]GlcNAc
# Outline: as §1
# [12] = target: Fuc(a1-2)Gal(b1-4)[Fuc(a1-3)]GlcNAc(b1-3)Gal(b1-4)[Fuc(a1-3)]GlcNAc(b1-3)Gal(b1-4)[Fuc(a1-3)]GlcNAc
# Outline: as §1
# [13] = target: Fuc(a1-2)Gal(b1-4)[Fuc(a1-3)]GlcNAc(b1-3)GalNAc
# Outline: as §1
# [14] = target: Fuc(a1-2)Gal(b1-4)[Fuc(a1-3)]GlcNAc(b1-3)[Neu5Ac(a2-6)Gal(b1-4)GlcNAc(b1-6)]Gal(b1-4)Glc
# Outline: as §1
# [15] = target: Fuc(a1-2)Gal3S(b1-4)GlcNAc
# Outline: as §1
# [16] = target: Fuc(a1-2)Gal6S(b1-3)GlcNAc
# Outline: as §1
# [17] = target: Fuc(a1-2)Gal6S(b1-3)GlcNAc6S
# Outline: as §1
# [18] = target: Fuc(a1-2)Gal6S(b1-4)Glc
# Outline: as §1
# [19] = target: Fuc(a1-2)Gal6S(b1-4)Glc6S
# Outline: as §1
# [20] = target: Fuc(a1-2)[Gal(a1-3)]Gal
# Outline: as §1
# [21] = target: Fuc(a1-2)[Gal(a1-3)]Gal(b1-3)GalNAc
# Outline: as §1
# [22] = target: Fuc(a1-2)[Gal(a1-3)]Gal(b1-3)GalNAc(b1-3)Gal(a1-4)Gal(b1-4)Glc
# Outline: as §1
# [23] = target: Fuc(a1-2)[Gal(a1-3)]Gal(b1-3)GlcNAc
# Outline: as §1
# [24] = target: Fuc(a1-2)[Gal(a1-3)]Gal(b1-3)GlcNAc(b1-2)Man(a1-3)[Fuc(a1-2)[Gal(a1-3)]Gal(b1-3)GlcNAc(b1-2)Man(a1-6)]Man(b1-4)GlcNAc(b1-4)GlcNAc
# Outline: as §1
# [25] = target: Fuc(a1-2)[Gal(a1-3)]Gal(b1-3)GlcNAc(b1-2)Man(a1-3)[Fuc(a1-2)[Gal(a1-3)]Gal(b1-3)GlcNAc(b1-2)Man(a1-6)]Man(b1-4)GlcNAc(b1-4)[Fuc(a1-6)]GlcNAc
# Outline: as §1
# [26] = target: Fuc(a1-2)[Gal(a1-3)]Gal(b1-3)GlcNAc(b1-3)GalNAc
# Outline: as §1
# [27] = target: Fuc(a1-2)[Gal(a1-3)]Gal(b1-3)GlcNAc(b1-6)GalNAc
# Outline: as §1
# [28] = target: Fuc(a1-2)[Gal(a1-3)]Gal(b1-4)Glc
# Outline: as §1
# [29] = target: Fuc(a1-2)[Gal(a1-3)]Gal(b1-4)GlcNAc
# Outline: as §1
# [30] = target: Fuc(a1-2)[Gal(a1-3)]Gal(b1-4)GlcNAc(b1-2)Man
# Outline: as §1
binder,measurement,setting,value
"Erv46-EDTA (Saccharomyces cerevisiae), P39727 (protein) MKFLVNVALVFMVVYISYIYAAAPEHHHHHHDYDIPTTENLYFQGAMDSVVTRPQLVVDRDRHAKLELNMDVTFPSMPCDLVNLDIMDDSGEMQLDILDAGFTMSRLNSEGRPVGDATELHVGGNGDGTAPVNNDPNYCGPCYGAKDQSQNENLAQEEKVCCQDCDAVRSAYLEAGWAFFDGKNIEQCEREGYVSKINEHLNEGCRIKGSAQINRIQGNLHFAPGKPYQNAYGHFHDTSLYDKTSNLNFNHIINHLSFGKPIQSHSKLLGNDKRHGGAVVATSPLDGRQVFPDRNTHFHQFSYFAKIVPTRYEYLDNVVIETAQFSATFHSRPLAGGRDKDHPNTLHVRGGIPGMFVFFEMSPLKVINKEQ",glycan array binding signal (z-score),[1],1.24
same,glycan array binding signal (z-score),[2],-0.781
same,glycan array binding signal (z-score),[3],-0.253
same,glycan array binding signal (z-score),[4],-0.087
same,glycan array binding signal (z-score),[5],0.87
same,glycan array binding signal (z-score),[6],-0.785
same,glycan array binding signal (z-score),[7],-0.349
same,glycan array binding signal (z-score),[8],0.104
same,glycan array binding signal (z-score),[9],2.29
same,glycan array binding signal (z-score),[10],2.34
same,glycan array binding signal (z-score),[11],0.035
same,glycan array binding signal (z-score),[12],-0.775
same,glycan array binding signal (z-score),[13],2.13
same,glycan array binding signal (z-score),[14],-0.485
same,glycan array binding signal (z-score),[15],-0.212
same,glycan array binding signal (z-score),[16],-0.892
same,glycan array binding signal (z-score),[17],0.837
same,glycan array binding signal (z-score),[18],0.218
same,glycan array binding signal (z-score),[19],0.075
same,glycan array binding signal (z-score),[20],-0.681
same,glycan array binding signal (z-score),[21],0.059
same,glycan array binding signal (z-score),[22],0.235
same,glycan array binding signal (z-score),[23],-0.131
same,glycan array binding signal (z-score),[24],0.041
same,glycan array binding signal (z-score),[25],-0.237
same,glycan array binding signal (z-score),[26],0.419
same,glycan array binding signal (z-score),[27],-0.095
same,glycan array binding signal (z-score),[28],-0.255
same,glycan array binding signal (z-score),[29],-0.476
same,glycan array binding signal (z-score),[30],-0.677

# Already shown: entries from further up.
binder,measurement,setting,value
"Erv46-EDTA (Saccharomyces cerevisiae), P39727 (protein) MKFLVNVALVFMVVYISYIYAAAPEHHHHHHDYDIPTTENLYFQGAMDSVVTRPQLVVDRDRHAKLELNMDVTFPSMPCDLVNLDIMDDSGEMQLDILDAGFTMSRLNSEGRPVGDATELHVGGNGDGTAPVNNDPNYCGPCYGAKDQSQNENLAQEEKVCCQDCDAVRSAYLEAGWAFFDGKNIEQCEREGYVSKINEHLNEGCRIKGSAQINRIQGNLHFAPGKPYQNAYGHFHDTSLYDKTSNLNFNHIINHLSFGKPIQSHSKLLGNDKRHGGAVVATSPLDGRQVFPDRNTHFHQFSYFAKIVPTRYEYLDNVVIETAQFSATFHSRPLAGGRDKDHPNTLHVRGGIPGMFVFFEMSPLKVINKEQ",glycan array binding signal (z-score),[21],0.059
same,glycan array binding signal (z-score),[22],0.235
same,glycan array binding signal (z-score),[23],-0.131
same,glycan array binding signal (z-score),[24],0.041
same,glycan array binding signal (z-score),[25],-0.237
